The text below walks through data of doi:10.1101/2022.07.21.500940 (bioRxiv, 2022).

Sequences of proteins named here, by UniProt entry; tags and fusion partners are left off.
UniProt P12004: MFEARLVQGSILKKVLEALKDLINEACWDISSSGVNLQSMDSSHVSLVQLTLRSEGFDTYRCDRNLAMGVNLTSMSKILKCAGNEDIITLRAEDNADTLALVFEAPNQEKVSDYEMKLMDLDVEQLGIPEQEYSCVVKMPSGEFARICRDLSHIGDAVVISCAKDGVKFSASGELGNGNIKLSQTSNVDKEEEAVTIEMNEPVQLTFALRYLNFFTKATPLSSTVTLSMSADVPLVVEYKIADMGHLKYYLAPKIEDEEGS

Results are given in words; binding and its absence hold for the method and conditions named. Tags and fused reporters may be left off the sequences shown.

This assay addresses T1, GST-tagged SNM1A peptide spanning the PBZ and UBZ motifs (GST-PBZ-UBZ) (human).
T1 sequence: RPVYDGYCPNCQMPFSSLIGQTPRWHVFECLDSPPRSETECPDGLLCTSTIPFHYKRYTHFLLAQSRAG
Description: pull-down.

With Human PCNA (from UniProt P12004 1-261), the binding entry is recorded as “no binding (tested: 150 ng)”.
